Experimental findings from patent US20220362404A1 are described below.

The target in experiment [1] is full-length phosphorylated TDP-43 (409/410) (UniProt Q13148). Put plainly: co-immunoprecipitation with anti-Flag, immunoblot with anti-phospho-TDP-43.
Experiment [2] concerns the target Myc-tagged N-terminal fragment of TDP-43 (1-161) (UniProt Q13148). Put plainly: co-immunoprecipitation with anti-myc from HEK293 lysate, immunoblot.
The target in experiment [3] is HA-tagged TDP-43 (wild type) (UniProt Q13148). Put plainly: co-immunoprecipitation with anti-Flag from HEK293 lysate, immunoblot.
The target of the next experiment is variant TDP-43 (RxL>AxA) (UniProt Q13148). The experiment is described as above.
The target in experiment [4] is recombinant His-tagged TDP-43 (full length) (UniProt Q13148). Briefly: Ni-NTA pull-down with recombinant proteins, immunoblot.

These are yes or no findings as the source states them, for the method shown. Binding seen in cells or lysates may run through a third protein. Some results given as binding are weak or reduced against the parent protein; the word gives no strength. Where a sequence is shown, tags or fusion partners need not be part of it.

B1: Flag-tagged cyclin F (protein, not shown: small tags and cut ends)
chain: MGSGGVVHCRCAKCFCYPTKRRIRRRPRNLTILSLPEDVLFHILKWLSVEDILAVRAVHSQLKDLVDNHASVWACASFQELWPSPGNLKLFERAAEKGNFEAAVKLGIAYLYNEGLSVSDEARAEVNGLKASRFFSLAERLNVGAAPFIWLFIRPPWSVSGSCCKAVVHESLRAECQLQRTHKASILHCLGRVLSLFEDEEKQQQAHDLFEEAAHQGCLTSSYLLWESDRRTDVSDPGRCLHSFRKLRDYAAKGCWEAQLSLAKACANANQLGLEVRASSEIVCQLFQASQAVSKQQVFSVQKGLNDTMRYILIDWLVEVATMKDFTSLCLHLTVECVDRYLRRRLVPRYRLQLLGIACMVICTRFISKEILTIREAVWLTDNTYKYEDLVRMMGEIVSALEGKIRVPTVVDYKEVLLTLVPVELRTQHLCSFLCELSLLHTSLSAYAPARLAAAALLLARLTHGQTQPWTTQLWDLTGFSYEDLIPCVLSLHKKCFHDDAPKDYRQVSLTAVKQRFEDKRYGEISQEEVLSYSQLCAALGVTQDSPDPPTFLSTGEIHAFLSSPSGRRTKRKRENSLQEDRGSFVTTPTAELSSQEETLLGSFLDWSLDCCSGYEGDQESEGEKEGDVTAPSGILDVTVVYLNPEQHCCQESSDEEACPEDKGPQDPQALALDTQIPATPGPKPLVRTSREPGKDVTTSGYSSVSTASPTSSVDGGLGALPQPTSVLSLDSDSHTQPCHHQARKSCLQCRPPSPPESSVPQQQVKRINLCIHSEEEDMNLGLVRL
With B1, the binding entry (in experiment [1]; in experiment [2]; in experiment [3]; in the experiment with variant TDP-43 (RxL>AxA)) was “binds” each time.

B2: recombinant full-length GST-tagged cyclin F (protein, not shown: a dimerising Fc or GST)
chain: MGSGGVVHCRCAKCFCYPTKRRIRRRPRNLTILSLPEDVLFHILKWLSVEDILAVRAVHSQLKDLVDNHASVWACASFQELWPSPGNLKLFERAAEKGNFEAAVKLGIAYLYNEGLSVSDEARAEVNGLKASRFFSLAERLNVGAAPFIWLFIRPPWSVSGSCCKAVVHESLRAECQLQRTHKASILHCLGRVLSLFEDEEKQQQAHDLFEEAAHQGCLTSSYLLWESDRRTDVSDPGRCLHSFRKLRDYAAKGCWEAQLSLAKACANANQLGLEVRASSEIVCQLFQASQAVSKQQVFSVQKGLNDTMRYILIDWLVEVATMKDFTSLCLHLTVECVDRYLRRRLVPRYRLQLLGIACMVICTRFISKEILTIREAVWLTDNTYKYEDLVRMMGEIVSALEGKIRVPTVVDYKEVLLTLVPVELRTQHLCSFLCELSLLHTSLSAYAPARLAAAALLLARLTHGQTQPWTTQLWDLTGFSYEDLIPCVLSLHKKCFHDDAPKDYRQVSLTAVKQRFEDKRYGEISQEEVLSYSQLCAALGVTQDSPDPPTFLSTGEIHAFLSSPSGRRTKRKRENSLQEDRGSFVTTPTAELSSQEETLLGSFLDWSLDCCSGYEGDQESEGEKEGDVTAPSGILDVTVVYLNPEQHCCQESSDEEACPEDKGPQDPQALALDTQIPATPGPKPLVRTSREPGKDVTTSGYSSVSTASPTSSVDGGLGALPQPTSVLSLDSDSHTQPCHHQARKSCLQCRPPSPPESSVPQQQVKRINLCIHSEEEDMNLGLVRL
In the case of B2, in experiment [4], the binding result is recorded as “binds”.
